# Measurements as given in US10709687B2, “FLT3 receptor inhibitor at low dosage for the treatment of neuropathic pain” (INSTITUT NATIONAL DE LA SANTE ET DE LA RECHERCHE MEDICALE …, priority 2016, dated 2020).
# System: nerve injury-induced mechanical pain hypersensitivity
# Test: Spinal Nerve Ligation (SNL) model, paw pressure test
# Type: in vivo, rat
# Details: Method 1; no experimental details given
# Source text: The chronic Spinal Nerve Ligation model, which involves a tight ligation of the L5 and/or L6 spinal nerves with silk thread as previously described in Kim and Chung (Pain, 1992, 50: 355-363 is a model on rat, illustrated in Example 3 herein after, well known to the person skilled in the art.
# Adult Sprague Dawley rats (300-340 gr) (Janvier LABS, Le Genest Saint-Isle, France) were used according to the guidelines of the International Association for the Study of Pain. Rats were housed in cages with a 12/12 hr light/dark cycle and fed food and water ad libitum. Behavioral responsiveness of the rats was tested following ten days of habituation to the testing environment and the observer. Left side L5 spinal nerve was injured as described by Kim and Chung (1992) Pain 50, 355-363. Anesthesia was induced and maintained with isoflurane. A midline incision was made at the L3-S2 level and the dorsal vertebral column from L4 to S2 was exposed. […] After surgery, the posture of the sham-operated and SNL rats was closely monitored before they were used in different experiments.
# Mechanical hyperalgesia was measured as the threshold to a noxious mechanical stimulus. Nociceptive thresholds (NT) were determined in handled rats by a modification of the Randall-Selitto method (Kayser et al., Brain Res 1990; 508:329-332). […] A 600-g cut-off value was determined to prevent tissue damage. […]
smiles,measurement,value
CO[C@@H]1[C@H](N(C)C(=O)c2ccccc2)C[C@H]2O[C@]1(C)n1c3ccccc3c3c4c(c5c6ccccc6n2c5c31)C(=O)NC4 [Midostaurin],maximal inhibition on the SNL model in rat (dose),4 mg/kg
